US11591367B2 (DSM IP ASSETS B.V., priority 2016, dated 2023)

Assay: general procedure: Fmoc solid-phase peptide synthesis; Fmoc-ramage-resin (loading approx. 0.5 mmol/g) for free amides; 2-chloro-trityl-resin (approx. 0.5 mmol/g) for substitut; TBTU/DIPEA
Details: whole synthesis, 2TFA; for isolated yield: scale of the general procedure approx. 2.5 g Fmoc-ramage-resin, approx. 2 g 2-chloro-trityl

Bz-Gly-His-D-Phe-Arg-L-2-NaphAla-NH2 *2TFA
isolated mass: 413 mg
isolated yield: (39%)

Bz-Gly-His-D-Phe-Arg-(N-IndEt)Gly-NH2 *2TFA
isolated mass: 135 mg
isolated yield: (13%)

Bz-Gly-His-D-Phe-Arg-Trp-NH2 *2TFA
isolated mass: 196 mg
isolated yield: (19%)

Bz-Gly-His-D-Phe-Dab-Trp-NH2 *2TFA
isolated mass: 170 mg
isolated yield: (14%)

Bz-Gly-His-D-Phe-Arg-D-2-NaphAla-NH2 *2TFA
isolated mass: 351 mg
isolated yield: (32%)

Bz-Gly-His-D-Phe-Arg-Tryptamide *2TFA
isolated mass: 40 mg
isolated yield: (4%)

Bz-Gly-D-His-D-Phe-Arg-Trp-N(Propyl)2 *2TFA
isolated mass: 113 mg
isolated yield: (10%)

Bz-Gly-His-D-Phe-D-Arg-Trp-N(Propyl)2 *2TFA
isolated mass: 214 mg
isolated yield: (18%)

Bz-Gly-His-D-Phe-Arg-D-Phe-NH2 *2TFA
isolated mass: 218 mg
isolated yield: (22%)

Bz-Gly-His-Phe-Arg-Trp-N(Propyl)2 *2TFA
isolated mass: 176 mg
isolated yield: (15%)

Bz-Gly-His-D-Phe-Arg-Trp-NHOctyl *2TFA
isolated mass: 278 mg
isolated yield: (28%)

Bz-Gly-His-D-Phe-Arg-Trp-N(Propyl)2 *2TFA
isolated mass: 196 mg
isolated yield: (36%)

Bz-Gly-His-D-Phe-Arg-D-Trp-N(Propyl)2 *2TFA
isolated mass: 131 mg
isolated yield: (12%)
